Experimental data reported in the supplement of paper PMC10849652.
The other results are listed elsewhere or left out.

Chains of the proteins cited; added tags and fusions are not shown. Lines headed by an entry give the natural chain unless they say otherwise; changes in a name come on top.
UniProt Q8IXV7: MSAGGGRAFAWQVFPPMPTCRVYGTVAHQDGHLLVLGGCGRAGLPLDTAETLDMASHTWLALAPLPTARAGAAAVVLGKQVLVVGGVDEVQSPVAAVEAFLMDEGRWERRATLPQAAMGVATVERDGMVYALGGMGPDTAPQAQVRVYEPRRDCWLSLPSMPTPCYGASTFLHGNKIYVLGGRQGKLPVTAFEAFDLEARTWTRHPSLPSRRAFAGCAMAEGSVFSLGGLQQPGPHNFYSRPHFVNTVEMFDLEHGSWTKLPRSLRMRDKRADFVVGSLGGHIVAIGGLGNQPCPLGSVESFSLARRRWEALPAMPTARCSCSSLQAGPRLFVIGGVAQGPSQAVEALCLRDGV
UniProt P50748: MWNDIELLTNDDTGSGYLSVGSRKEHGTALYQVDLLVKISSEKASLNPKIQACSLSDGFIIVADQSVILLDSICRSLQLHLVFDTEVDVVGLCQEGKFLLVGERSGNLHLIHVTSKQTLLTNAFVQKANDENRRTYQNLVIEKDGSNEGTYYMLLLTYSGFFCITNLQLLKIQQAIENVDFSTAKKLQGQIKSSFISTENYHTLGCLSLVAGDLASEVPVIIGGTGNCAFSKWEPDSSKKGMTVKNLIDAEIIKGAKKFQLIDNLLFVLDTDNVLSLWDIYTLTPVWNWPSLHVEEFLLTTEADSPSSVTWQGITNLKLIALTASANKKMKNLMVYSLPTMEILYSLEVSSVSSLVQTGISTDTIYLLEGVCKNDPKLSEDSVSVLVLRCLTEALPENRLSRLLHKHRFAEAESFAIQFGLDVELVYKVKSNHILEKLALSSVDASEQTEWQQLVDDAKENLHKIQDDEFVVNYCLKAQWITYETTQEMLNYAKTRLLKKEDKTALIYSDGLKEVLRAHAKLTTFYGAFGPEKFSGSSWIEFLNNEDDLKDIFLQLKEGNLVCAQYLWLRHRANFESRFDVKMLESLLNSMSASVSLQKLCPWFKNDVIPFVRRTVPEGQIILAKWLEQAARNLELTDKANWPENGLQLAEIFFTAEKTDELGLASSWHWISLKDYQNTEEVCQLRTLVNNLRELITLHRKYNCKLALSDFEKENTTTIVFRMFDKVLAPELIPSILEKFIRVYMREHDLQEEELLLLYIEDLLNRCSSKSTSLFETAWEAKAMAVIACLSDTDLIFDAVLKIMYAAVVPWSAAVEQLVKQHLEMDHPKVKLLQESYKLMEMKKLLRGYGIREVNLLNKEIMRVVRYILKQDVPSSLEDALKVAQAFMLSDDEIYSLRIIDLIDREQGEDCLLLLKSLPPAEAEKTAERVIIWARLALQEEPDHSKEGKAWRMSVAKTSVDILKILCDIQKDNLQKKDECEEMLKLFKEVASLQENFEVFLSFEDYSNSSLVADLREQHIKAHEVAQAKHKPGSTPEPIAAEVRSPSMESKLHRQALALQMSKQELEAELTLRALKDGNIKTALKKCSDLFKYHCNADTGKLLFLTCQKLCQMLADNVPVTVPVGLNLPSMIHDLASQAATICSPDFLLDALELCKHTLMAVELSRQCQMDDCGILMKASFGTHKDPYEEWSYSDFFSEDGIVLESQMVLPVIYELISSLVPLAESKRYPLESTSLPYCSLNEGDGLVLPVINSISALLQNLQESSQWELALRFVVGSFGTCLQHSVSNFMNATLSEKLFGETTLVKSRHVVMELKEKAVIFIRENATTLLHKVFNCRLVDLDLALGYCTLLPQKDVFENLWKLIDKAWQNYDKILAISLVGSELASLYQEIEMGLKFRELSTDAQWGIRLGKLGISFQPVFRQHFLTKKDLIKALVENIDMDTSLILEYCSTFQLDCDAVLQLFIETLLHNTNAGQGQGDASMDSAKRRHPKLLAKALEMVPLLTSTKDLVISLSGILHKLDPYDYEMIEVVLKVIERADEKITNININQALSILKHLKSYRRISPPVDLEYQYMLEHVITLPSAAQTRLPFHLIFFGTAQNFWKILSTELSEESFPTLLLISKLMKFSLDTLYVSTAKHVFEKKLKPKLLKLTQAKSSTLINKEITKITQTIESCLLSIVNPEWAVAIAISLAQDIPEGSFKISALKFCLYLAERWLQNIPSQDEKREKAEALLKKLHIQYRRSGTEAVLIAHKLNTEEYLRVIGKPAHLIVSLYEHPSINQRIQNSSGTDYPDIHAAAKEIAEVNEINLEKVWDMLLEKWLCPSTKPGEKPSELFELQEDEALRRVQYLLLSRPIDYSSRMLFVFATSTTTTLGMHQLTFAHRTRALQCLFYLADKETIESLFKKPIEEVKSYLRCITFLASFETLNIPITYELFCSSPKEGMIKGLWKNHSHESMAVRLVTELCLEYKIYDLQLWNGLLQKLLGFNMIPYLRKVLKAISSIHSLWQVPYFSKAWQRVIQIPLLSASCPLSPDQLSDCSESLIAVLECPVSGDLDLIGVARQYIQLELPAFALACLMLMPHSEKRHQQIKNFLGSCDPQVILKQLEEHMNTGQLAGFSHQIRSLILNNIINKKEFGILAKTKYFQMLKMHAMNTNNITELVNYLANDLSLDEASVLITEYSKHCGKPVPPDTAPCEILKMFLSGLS
UniProt Q96SI1: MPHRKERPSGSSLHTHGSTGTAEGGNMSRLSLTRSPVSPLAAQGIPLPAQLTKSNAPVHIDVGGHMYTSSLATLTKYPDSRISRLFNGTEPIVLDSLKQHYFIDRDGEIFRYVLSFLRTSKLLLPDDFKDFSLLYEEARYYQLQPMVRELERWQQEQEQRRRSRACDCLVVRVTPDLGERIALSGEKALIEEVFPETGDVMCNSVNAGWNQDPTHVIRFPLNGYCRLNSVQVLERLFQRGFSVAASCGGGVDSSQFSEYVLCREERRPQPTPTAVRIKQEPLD
UniProt O15554, whole entry, looked up: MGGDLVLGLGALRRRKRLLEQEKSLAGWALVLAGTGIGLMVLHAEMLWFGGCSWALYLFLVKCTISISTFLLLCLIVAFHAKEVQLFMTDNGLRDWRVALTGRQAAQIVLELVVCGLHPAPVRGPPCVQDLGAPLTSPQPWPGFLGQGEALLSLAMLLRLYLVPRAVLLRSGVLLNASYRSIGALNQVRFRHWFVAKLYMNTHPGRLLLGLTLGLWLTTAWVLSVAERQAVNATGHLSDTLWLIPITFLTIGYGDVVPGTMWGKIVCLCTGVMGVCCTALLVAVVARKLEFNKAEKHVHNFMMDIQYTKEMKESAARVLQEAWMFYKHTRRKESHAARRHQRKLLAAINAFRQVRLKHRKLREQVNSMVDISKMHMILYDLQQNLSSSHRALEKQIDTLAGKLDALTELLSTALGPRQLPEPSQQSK
UniProt Q9NXV2: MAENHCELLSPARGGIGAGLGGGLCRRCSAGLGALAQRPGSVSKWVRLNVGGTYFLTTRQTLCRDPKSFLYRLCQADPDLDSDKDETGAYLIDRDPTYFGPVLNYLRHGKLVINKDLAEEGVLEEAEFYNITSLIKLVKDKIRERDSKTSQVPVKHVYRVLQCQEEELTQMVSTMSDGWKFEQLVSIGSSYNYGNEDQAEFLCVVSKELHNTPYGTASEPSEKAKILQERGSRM
UniProt O00522: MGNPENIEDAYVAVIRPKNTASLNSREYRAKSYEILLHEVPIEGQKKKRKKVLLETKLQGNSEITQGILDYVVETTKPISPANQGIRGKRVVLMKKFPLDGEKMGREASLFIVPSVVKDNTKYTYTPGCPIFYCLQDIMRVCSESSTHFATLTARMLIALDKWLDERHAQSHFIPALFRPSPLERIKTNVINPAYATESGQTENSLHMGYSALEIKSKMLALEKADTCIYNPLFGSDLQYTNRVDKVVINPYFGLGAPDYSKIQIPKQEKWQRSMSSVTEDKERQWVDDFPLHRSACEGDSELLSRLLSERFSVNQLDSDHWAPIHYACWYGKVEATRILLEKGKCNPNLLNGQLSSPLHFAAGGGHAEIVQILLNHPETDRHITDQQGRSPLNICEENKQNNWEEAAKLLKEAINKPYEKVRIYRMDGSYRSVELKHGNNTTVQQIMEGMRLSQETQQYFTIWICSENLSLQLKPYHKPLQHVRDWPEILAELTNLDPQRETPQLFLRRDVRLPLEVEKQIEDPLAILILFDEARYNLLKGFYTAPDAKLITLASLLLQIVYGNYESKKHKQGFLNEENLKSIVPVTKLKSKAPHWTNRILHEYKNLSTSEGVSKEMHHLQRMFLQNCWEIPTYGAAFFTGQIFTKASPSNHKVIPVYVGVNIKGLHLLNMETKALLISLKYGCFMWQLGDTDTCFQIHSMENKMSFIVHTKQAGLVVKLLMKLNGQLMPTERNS
UniProt Q99661: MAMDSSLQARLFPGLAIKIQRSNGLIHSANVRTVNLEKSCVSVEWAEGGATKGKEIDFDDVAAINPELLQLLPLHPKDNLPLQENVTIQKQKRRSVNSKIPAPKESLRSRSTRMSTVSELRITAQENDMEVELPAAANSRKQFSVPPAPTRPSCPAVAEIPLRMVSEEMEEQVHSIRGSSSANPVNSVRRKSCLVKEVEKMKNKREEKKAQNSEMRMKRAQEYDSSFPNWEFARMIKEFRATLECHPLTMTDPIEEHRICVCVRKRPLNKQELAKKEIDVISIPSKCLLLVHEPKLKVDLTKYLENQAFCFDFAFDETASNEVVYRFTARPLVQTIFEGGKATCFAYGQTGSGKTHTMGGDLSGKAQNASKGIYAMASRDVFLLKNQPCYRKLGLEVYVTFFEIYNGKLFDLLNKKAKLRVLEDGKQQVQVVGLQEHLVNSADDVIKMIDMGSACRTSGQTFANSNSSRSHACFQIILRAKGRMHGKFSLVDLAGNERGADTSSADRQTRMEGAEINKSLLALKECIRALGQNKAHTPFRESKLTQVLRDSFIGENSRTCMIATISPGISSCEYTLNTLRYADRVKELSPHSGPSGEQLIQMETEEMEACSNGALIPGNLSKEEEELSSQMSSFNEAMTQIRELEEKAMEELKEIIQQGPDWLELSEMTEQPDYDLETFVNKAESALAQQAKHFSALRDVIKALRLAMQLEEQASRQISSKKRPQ
UniProt O75449: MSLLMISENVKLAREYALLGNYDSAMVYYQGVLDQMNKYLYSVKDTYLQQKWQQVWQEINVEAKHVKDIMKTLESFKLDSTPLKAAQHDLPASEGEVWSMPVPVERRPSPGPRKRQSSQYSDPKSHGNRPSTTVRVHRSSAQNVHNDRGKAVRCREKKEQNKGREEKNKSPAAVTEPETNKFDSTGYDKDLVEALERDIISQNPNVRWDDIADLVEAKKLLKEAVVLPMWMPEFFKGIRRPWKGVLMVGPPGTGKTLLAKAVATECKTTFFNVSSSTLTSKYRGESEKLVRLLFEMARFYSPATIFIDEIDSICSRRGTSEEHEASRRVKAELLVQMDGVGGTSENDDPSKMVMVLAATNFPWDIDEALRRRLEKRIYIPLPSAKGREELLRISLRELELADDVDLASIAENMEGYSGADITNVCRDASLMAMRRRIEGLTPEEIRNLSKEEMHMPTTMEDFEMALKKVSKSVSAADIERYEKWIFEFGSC
UniProt P52333: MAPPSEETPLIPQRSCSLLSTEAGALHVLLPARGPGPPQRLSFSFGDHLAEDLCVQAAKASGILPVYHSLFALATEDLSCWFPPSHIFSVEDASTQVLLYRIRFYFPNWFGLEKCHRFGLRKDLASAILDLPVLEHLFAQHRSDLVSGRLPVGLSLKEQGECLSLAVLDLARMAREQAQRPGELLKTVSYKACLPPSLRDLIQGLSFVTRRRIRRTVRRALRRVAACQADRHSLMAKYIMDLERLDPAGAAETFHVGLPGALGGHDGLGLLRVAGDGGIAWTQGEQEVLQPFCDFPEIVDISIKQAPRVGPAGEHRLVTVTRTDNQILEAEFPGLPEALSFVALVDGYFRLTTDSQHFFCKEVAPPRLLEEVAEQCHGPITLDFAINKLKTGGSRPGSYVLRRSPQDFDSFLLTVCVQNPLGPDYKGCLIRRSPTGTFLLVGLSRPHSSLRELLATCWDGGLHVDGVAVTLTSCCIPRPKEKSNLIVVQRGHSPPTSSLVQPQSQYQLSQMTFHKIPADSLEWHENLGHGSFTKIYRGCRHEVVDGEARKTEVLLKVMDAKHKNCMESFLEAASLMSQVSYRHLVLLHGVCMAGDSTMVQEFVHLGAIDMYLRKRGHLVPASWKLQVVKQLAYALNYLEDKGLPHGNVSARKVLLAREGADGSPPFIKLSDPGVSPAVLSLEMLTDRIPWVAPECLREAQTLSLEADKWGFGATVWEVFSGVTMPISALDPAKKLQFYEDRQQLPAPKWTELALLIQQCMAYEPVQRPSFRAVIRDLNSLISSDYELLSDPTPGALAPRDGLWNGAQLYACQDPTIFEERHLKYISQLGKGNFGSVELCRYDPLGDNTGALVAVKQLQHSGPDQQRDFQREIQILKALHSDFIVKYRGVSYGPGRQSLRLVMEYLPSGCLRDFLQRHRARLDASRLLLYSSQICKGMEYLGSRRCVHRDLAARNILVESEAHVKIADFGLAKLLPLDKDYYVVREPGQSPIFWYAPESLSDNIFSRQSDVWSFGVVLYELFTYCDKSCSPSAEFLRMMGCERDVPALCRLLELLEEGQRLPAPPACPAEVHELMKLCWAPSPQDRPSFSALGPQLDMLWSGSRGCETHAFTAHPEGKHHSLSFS

compound: C1=CC=C(C=C1)[C@H](COC2=CC3=C(C=C2)NC(=O)N3)NC(=O)C4=CC=CN(C4=O)CC5=CC(=C(C=C5)F)F; experiment: log2 fold change, soluble protein after heating vs DMSO (PISA); higher = thermal stabilisation; K562 cells, 10 uM, 30 min; active = over 0.2 and 3.5 SD of the protein, either way, in both replicates (recomputed)
How it was run: (§1)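 For each measurement, 10 μM compound was applied for 30 min to K562 cells at 2×10^6 cells/mL. Aliquots were heated for 3 min across 48°C-58°C, pooled, and extracted in PBS with 0.5% NP-40 at 4°C; the supernatant after 21,000xg for 90 min was soluble protein. This was quantified by TMTpro 16plex LC-MS/MS with channel sums equalised, and thermal stability was reported relative to control samples from duplicates, on a log2 fold-change scale.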

| Target | log2 fold change |
| --- | --- |
| KEAP1 (UniProt Q14145) | inactive: 0.015 |
| KPNA1 (UniProt P52294) | inactive: -0.03 |
| KIFBP (UniProt Q96EK5) | inactive: -0.075 |
| KIAA0754 (UniProt O94854) | inactive: 0.136 |
| KLHDC8B (UniProt Q8IXV7) | inactive: 0.236 |
| KIF14 (UniProt Q15058) | inactive: 0.216 |
| KHK isoform 2 (UniProt P50053) | inactive: -0.061 |
| KNTC1 (UniProt P50748) | inactive: -0.079 |
| JAG2 (UniProt Q9Y219) | inactive: 0.031 |
| JPT2 isoform 3 (UniProt Q9H910) | inactive: -0.017 |
| KIF5B (UniProt P33176) | inactive: -0.039 |
| KCTD15 (UniProt Q96SI1) | inactive: -0.035 |
| KCNN4 (UniProt O15554) | inactive: 0.237 |
| KPNA2 (UniProt P52292) | inactive: -0.015 |
| KCTD5 (UniProt Q9NXV2) | inactive: -0.033 |
| KSR1 (UniProt Q8IVT5) | inactive: -0.044 |
| KIDINS220 (UniProt Q9ULH0) | inactive: -0.001 |
| KCT2 (UniProt Q8NC54) | inactive: 0.046 |
| KRIT1 (UniProt O00522) | inactive: -0.586 |

| Target | log2 fold change |
| --- | --- |
| KCTD3 (UniProt Q9Y597) | inactive: 0.031 |
| KIF13A (UniProt Q9H1H9) | inactive: 0.022 |
| KDSR (UniProt Q06136) | inactive: -0.014 |
| JUN (UniProt P05412) | inactive: 0.078 |
| JUND (UniProt P17535) | inactive: 0.039 |
| IWS1 (UniProt Q96ST2) | inactive: -0.01 |
| KIAA1143 (UniProt Q96AT1) | inactive: 0.074 |
| KIAA0930 isoform 2 (UniProt Q6ICG6) | inactive: -0.093 |
| KATNB1 (UniProt Q9BVA0) | inactive: -0.039 |
| KIF2C (UniProt Q99661) | inactive: -0.062 |
| KMT2D isoform 3 (UniProt O14686) | inactive: 0.019 |
| IVNS1ABP (UniProt Q9Y6Y0) | inactive: -0.104 |
| KATNA1 (UniProt O75449) | inactive: -0.001 |
| KIF13B (UniProt Q9NQT8) | inactive: 0.005 |
| KLHDC3 (UniProt Q9BQ90) | inactive: 0.063 |
| JAK3 (UniProt P52333) | inactive: -0.011 |
| KIF11 (UniProt P52732) | inactive: -0.044 |
| KLHL7 (UniProt Q8IXQ5) | inactive: 0.137 |

compound: CC1=C(SC2=C1C(=N[C@H](C3=NN=C(N32)C)CC(=O)N)C4=CC=C(C=C4)Cl)C; experiment: as above
How it was run: as §1

| Target | log2 fold change |
| --- | --- |
| KEAP1 (UniProt Q14145) | inactive: -0.001 |
| KPNA1 (UniProt P52294) | inactive: -0.049 |
| KIFBP (UniProt Q96EK5) | inactive: 0.025 |
| KIAA0754 (UniProt O94854) | inactive: 0.158 |
| KLHDC8B (UniProt Q8IXV7) | inactive: -0.058 |
| KIF14 (UniProt Q15058) | inactive: -0.502 |
| KHK isoform 2 (UniProt P50053) | inactive: 0.002 |
| KNTC1 (UniProt P50748) | inactive: 0.011 |
| JAG2 (UniProt Q9Y219) | inactive: 0.056 |
| JPT2 isoform 3 (UniProt Q9H910) | inactive: 0.031 |
| KIF5B (UniProt P33176) | inactive: 0.06 |
| KCTD15 (UniProt Q96SI1) | inactive: 0.007 |
| KCNN4 (UniProt O15554) | inactive: 0.16 |
| KPNA2 (UniProt P52292) | inactive: -0.21 |
| KCTD5 (UniProt Q9NXV2) | inactive: 0.005 |
| KSR1 (UniProt Q8IVT5) | inactive: 0.033 |
| KIDINS220 (UniProt Q9ULH0) | inactive: 0.024 |
| KCT2 (UniProt Q8NC54) | inactive: 0.024 |
| KRIT1 (UniProt O00522) | inactive: 0.027 |

| Target | log2 fold change |
| --- | --- |
| KCTD3 (UniProt Q9Y597) | inactive: -0.052 |
| KIF13A (UniProt Q9H1H9) | inactive: 0.039 |
| KDSR (UniProt Q06136) | inactive: 0.021 |
| JUN (UniProt P05412) | inactive: 0.195 |
| JUND (UniProt P17535) | inactive: -0.005 |
| IWS1 (UniProt Q96ST2) | inactive: 0.08 |
| KIAA1143 (UniProt Q96AT1) | inactive: 0 |
| KIAA0930 isoform 2 (UniProt Q6ICG6) | inactive: -0.043 |
| KATNB1 (UniProt Q9BVA0) | inactive: 0.018 |
| KIF2C (UniProt Q99661) | inactive: -0.021 |
| KMT2D isoform 3 (UniProt O14686) | inactive: 0.041 |
| IVNS1ABP (UniProt Q9Y6Y0) | inactive: 0.096 |
| KATNA1 (UniProt O75449) | inactive: -0.011 |
| KIF13B (UniProt Q9NQT8) | inactive: 0.011 |
| KLHDC3 (UniProt Q9BQ90) | inactive: 0.133 |
| JAK3 (UniProt P52333) | inactive: 0.075 |
| KIF11 (UniProt P52732) | inactive: -0.011 |
| KLHL7 (UniProt Q8IXQ5) | inactive: 0.081 |
